Drawing on PMC5855688, “BC-Box Motif-Mediated Neuronal Differentiation of Somatic Stem Cells” (International Journal of Molecular Sciences, 2018), this text covers binding for two molecules.

Amino acid sequences for entries named in this document (tags omitted).
UniProt P83941: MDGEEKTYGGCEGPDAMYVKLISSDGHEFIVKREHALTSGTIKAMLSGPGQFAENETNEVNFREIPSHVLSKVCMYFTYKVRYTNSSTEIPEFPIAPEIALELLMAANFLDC

This test concerns the target elongin C (rat (endogenous in SKPs)) (UniProt P83941). As to the kind of experiment: co-IP; RIPA lysates of rat SKPs treated with FITC peptide; immunoprecipitated with anti-elongin C antibody (Protein A Microbeads), blotted with anti-FITC antibody.

These are yes or no findings as the source states them, for the method shown. Binding seen in cells or lysates may run through a third protein. Some entries that bind do so weakly or less than the wild type.

Take YARAAARQARATLKERCLQVVRS [FITC-VHL(157–168)]: the binding result is listed as “binds weakly”.

For YARAAARQARATLKERCLQVVRSLVK [FITC-VHL(157–171)], the binding result is listed as “binds”.
